PubChem BioAssay AID1347131 (National Center for Advancing Translational Sciences (NCATS), 2019)
In all, about 410,000 compounds went through this assay and about 2,000 (0.49%) were called active. The shares of active, inactive and inconclusive entries below differ from those in the screen. Calls come from the whole dose curve; tested in HEK293 reporter line. Where the call is inconclusive, the potency comes from a doubtful curve fit.

Experiment: qHTS Assay for Foot and Mouth Disease Virus Antivirals: Primary Screen against the MLPCN compound library; note: nearly all actives have a fitted effect of over 55% in size
Conditions: FMDV antiviral cell-based qHTS; activity, negative = inhibition: at 57.9 µM (top of the series)
Potency is the fitted concentration of half-maximal effect.

Row | SMILES | Potency | activity, negative = inhibition
1 | COc1ccccc1Oc1ccc2c(c1)C(=O)N(c1cccc3ncccc13)C2=O | inconclusive: 20 µM [inhibitor, partial curve, poor fit] | 
2 | CCOc1ccccc1N1CCN(CC(=O)Nc2ccccc2C(=O)NC2CC2)CC1 |  | inactive: -36.1%
3 | Cc1ccc(-c2nnc(N3CCN(C(=O)COc4cccc(C)c4)CC3)c3ccccc23)cc1 | inconclusive: 25.1 µM [inhibitor, partial curve, poor fit] | 
4 | COc1ccc(-c2noc(N3CCN(c4ccc(Cl)cc4)CC3)n2)cc1OC | inconclusive: 11.2 µM [inhibitor, partial curve] | 
5 | CCc1ccc(NC(=O)c2cnc(N3CCN(c4ccccn4)CC3)c3ccccc23)cc1 | inconclusive: 11.2 µM [inhibitor, partial curve, poor fit] | 
6 | O=S(=O)(c1cccc(-c2csc(N/N=C/c3ccco3)n2)c1)N1CCOCC1 | inconclusive: 28.2 µM [inhibitor, single point] | 
7 | Cc1cc2cc(CCNS(=O)(=O)c3ccc(Br)cc3)c(=O)[nH]c2cc1C | inconclusive: 20 µM [inhibitor, partial curve, poor fit] | 
8 | O=C(CCS(=O)(=O)c1nc(-c2cccs2)cc(C(F)(F)F)n1)Nc1ccc(Br)cc1 | inconclusive: 39.8 µM [inhibitor, partial curve, poor fit] | 
9 | CCc1ccc(/C=C/c2c([N+](=O)[O-])c(=O)n(C)c(=O)n2C)cc1 | inconclusive: 15.8 µM [inhibitor, partial curve, poor fit] | 
10 | COc1cc(C(=O)Nc2ccc3c(c2)Cc2ccccc2-3)cc(OC)c1OC | inconclusive: 3.16 µM [inhibitor, full curve] | 
11 | COC1(OC)C(/C=C/c2ccc(C)cc2)C(C#N)(C#N)C1(OC)OC (configuration not stated) | inconclusive: 22.4 µM [inhibitor, partial curve, poor fit] | 
12 | CCOC(=O)c1cccc(C2=CC(=O)C[C@H](c3ccc(OC)c(OC)c3)C2)c1 | inconclusive: 39.8 µM [inhibitor, partial curve, poor fit] | 
13 | Cc1cccc(NC(=O)C2CCN(c3nc(C)cc(C)n3)CC2)c1 | inconclusive: 17.8 µM [inhibitor, single point] | 
14 | CC(=O)c1cccc(CN2CCC(C(=O)Nc3cccc(-c4ccn[nH]4)c3)CC2)c1 | inconclusive: 31.6 µM [inhibitor, single point] | 
15 | Cc1cc(C(=O)N/N=C/c2ccc(O)c(O)c2O)c(C)n1-c1ccccc1 | inconclusive: 15.8 µM [inhibitor, partial curve] | 
16 | CC(=O)Nc1ccc(Nc2nc(-c3sc(C)nc3C)cs2)cc1 | inconclusive: 31.6 µM [inhibitor, partial curve, poor fit] | 
17 | COc1ccc(/C=N/NC(=O)c2cc[n+]([O-])cc2)cc1OC | inconclusive: 3.98 µM [inhibitor, partial curve] | 
18 | COc1ccc(N2CCN(C(=O)CN3CCSc4ccccc43)CC2)cc1 |  | inactive: -32.5%
19 | CCOC(=O)c1c(NC(=O)CCl)sc(CN(C)C)c1-c1ccccc1 | inconclusive: 35.5 µM [inhibitor, partial curve, poor fit] | 

Row | SMILES | Potency | activity, negative = inhibition
20 | C(=N\Nc1ccc2ccccc2n1)/c1ccc2c(c1)OCCO2 |  | inactive: -52.8%
21 | Cc1ccc(S(=O)(=O)Nc2cc3c(C(=O)OCc4ccccc4)c(C)oc3c3ccccc23)c(C)c1 | inconclusive: 12.6 µM [inhibitor, partial curve] | 
22 | Cc1cccc(OCc2nnc(SCC(=O)NC3CCCCC3)n2C)c1 | inconclusive: 14.1 µM [inhibitor, partial curve] | 
23 | Cc1ccc(-c2nc3cc(NC(=O)C(C)C)ccc3o2)cc1C | active: 22.4 µM | 
24 | CSc1cccc(NC(=S)N(CCCN2CCCC2)Cc2cccn2Cc2ccc(Cl)cc2)c1 | inconclusive: 39.8 µM [inhibitor, single point] | 
25 | CCN(CC)S(=O)(=O)c1ccc(/C=C/C(=O)Nc2ccc(Br)cc2F)cc1 | inconclusive: 5.01 µM [inhibitor, partial curve, poor fit] | 
26 | CCOC(=O)N1CCN(Cc2ccc3c(c2)CN(C(=O)c2ccc4ncccc4c2)CCO3)CC1 | inconclusive: 28.2 µM [inhibitor, partial curve, poor fit] | 
27 | O=C(C1CCCN(S(=O)(=O)Cc2ccccc2)C1)N1CCC(Cc2ccccc2)CC1 (configuration not stated) | inconclusive: 39.8 µM [inhibitor, partial curve, poor fit] | 
28 | Cc1ccccc1OCC(=O)Nc1ccc2oc(-c3ccc(F)cc3)nc2c1 | inconclusive: 3.55 µM [inhibitor, partial curve, poor fit] | 
29 | COc1ccc(-c2cc(C(=O)N3CCCCC3)no2)cc1OC |  | inactive: 101%
30 | COc1ccc(/C(C)=N/OCC(=O)N=Nc2c(O)[nH]c3ccc(Br)cc23)cc1 | inconclusive: 39.8 µM [inhibitor, partial curve, poor fit] | 
31 | Cc1ccc(N2C(=O)CC(N3CCN/C3=C3\CC/C(=C\c4ccccc4)C3=O)C2=O)cc1 (configuration not stated) |  | inactive: -34.8%
32 | CCOC(=O)/C(=C\c1cn(C)c2ccccc12)[N+](=O)[O-] | inconclusive: 28.2 µM [inhibitor, partial curve, poor fit] | 
33 | O=C1C(=O)c2ccccc2C(O)=C1CCCCl | inconclusive: 28.2 µM [inhibitor, partial curve, poor fit] | 
34 | CCc1nc2c(OCCC3CCCCC3)cccn2c1N(C)C(=O)c1cccs1 | inconclusive: 28.2 µM [inhibitor, partial curve, poor fit] | 
35 | CCOC(=O)[C@]12Cc3ccccc3[C@H]1N(Cc1ccccc1)C(=O)c1cc(F)c(F)cc12 | inconclusive: 25.1 µM [inhibitor, partial curve, poor fit] | 
36 | COc1ccc2c(c1)c1ccc3c(c1n2C)C(=O)C=CC3=O | inconclusive: 28.2 µM [inhibitor, partial curve, poor fit] | 
37 | O=C(c1ccc(Cl)cc1Cl)N1CCN(c2ccccn2)CC1 | inconclusive: 15.8 µM [inhibitor, partial curve, poor fit] | 
38 | Cc1ccccc1C(=O)NCC(=O)Nc1ccc(C)c(S(=O)(=O)N2CCCCCC2)c1 | inconclusive: 35.5 µM [inhibitor, partial curve, poor fit] | 

Row | SMILES | Potency | activity, negative = inhibition
39 | CCCCCc1c(Cc2ccccc2)ncn1CCc1ccccc1OC | inconclusive: 35.5 µM [inhibitor, partial curve, poor fit] | 
40 | COCCN(Cc1ccco1)C(=O)Cn1ncc2c([nH]c3ccccc32)c1=O | inconclusive: 10 µM [inhibitor, partial curve, poor fit] | 
41 | COc1cc(NC(=O)Nc2cccc(Cl)c2)c(OC)cc1NC(=O)CN1CCCCC1 |  | inconclusive: -33.3% [inhibitor]
42 | O=C1C(C=Nc2ccccc2)=C(O)c2ccccc21 | active: 10 µM | 
43 | CC(=O)O[C@@H]1C[C@@]2(C)C(c3ccoc3)C[C@H]3O[C@]32[C@]2(C)C(=O)C(O)=C3C(C)(C)C(=O)C=C[C@]3(C)C12 (some centres not stated) | inconclusive: 25.1 µM [inhibitor, partial curve, poor fit] | 
44 | CN(c1ccccc1)S(=O)(=O)c1cccc(NC(=O)CCNC(=O)c2ccc([N+](=O)[O-])cc2)c1 | inconclusive: 39.8 µM [inhibitor, single point] | 
45 | COc1ccc(-n2c(O)c(/C=C3\C=Nc4ccc(Br)cc43)c(=O)[nH]c2=O)cc1 | inconclusive: 15.8 µM [inhibitor, partial curve, poor fit] | 
46 | C(=NN1CCCCCC1)c1ccc2c(c1)OCO2 | inconclusive: 25.1 µM [inhibitor, single point] | 
47 | CCOC(=O)c1ccc(N2C(=O)c3[nH]nc(-c4ccc(C)cc4)c3C2c2ccc(O)cc2)cc1 (configuration not stated) | inconclusive: 31.6 µM [inhibitor, partial curve, poor fit] | 
48 | COCCNC(=O)C1CCCN(S(=O)(=O)c2ccc3c(c2)CC(C)N3C(=O)C2CC2)C1 (configuration not stated) | inconclusive: 1.41 µM [inhibitor, full curve] | 
49 | O=C(O)c1cccc(N2C(=O)c3cc([N+](=O)[O-])cc4cc([N+](=O)[O-])cc(c34)C2=O)c1 | inconclusive: 35.5 µM [inhibitor, single point] | 
50 | Cc1oc(-c2ccccc2F)nc1CS(=O)(=O)CC(=O)N1CCN(c2ccc(Cl)cc2)CC1 | inconclusive: 15.8 µM [inhibitor, partial curve, poor fit] | 
51 | Cc1cccc(OCC(=O)NNC(=O)C2CCN(c3ncnc4sc(C)c(C)c34)CC2)c1 | inconclusive: 28.2 µM [inhibitor, partial curve, poor fit] | 
52 | Cc1ccc(-n2[nH]c(C)c(/C=N/Nc3ccc([N+](=O)[O-])cc3[N+](=O)[O-])c2=O)cc1C | inconclusive: 10 µM [inhibitor, partial curve, poor fit] | 
53 | O=C(NC1CCN(Cc2ccccc2)CC1)C1CCN(c2nnc(-n3cccc3)s2)CC1 | inconclusive: 3.98 µM [inhibitor, full curve] | 
54 | CCSc1nnc(NC(=O)c2nc(S(=O)(=O)Cc3ccc(F)cc3)ncc2Cl)s1 | inconclusive: 8.91 µM [inhibitor, full curve, poor fit] | 
55 | Cc1ccc(-c2cnc3c(Cl)c(C)nn3c2)cc1 | inconclusive: 17.8 µM [inhibitor, single point] | 
56 | Cc1ccc2c(c1)C(N1CCCC1=O)CC(c1ccco1)N2 (configuration not stated) | inconclusive: 39.8 µM [inhibitor, single point] | 
57 | Cc1cc([N+](=O)[O-])ccc1-c1ccc(C2Nc3ccccc3C(=O)N2O)o1 (configuration not stated) | inconclusive: 7.08 µM [inhibitor, partial curve] | 
